# Source: patent publication US9295629B2 (CAREGEN CO., LTD., priority 2011, dated 2016)
# Where no end group is shown, it is not given here.
# System: fibroblasts
# Test: Immunostaining for presence of the peptide in fibroblasts
# Format: cell-based
# Settings: fibroblasts treated with peptide, immunostaining (FIG. 7c)
row,Substance,presence of the peptide in cells
1,LCCGRGHRTRTQR (cysteine pairing not given here) [peptide-1],presence of the peptide in cells
2,"peptide-4: WNT-derived peptide, amino acid sequence LCCGRGHNVL (WNT-derived peptide 4)",presence of the peptide in cells
3,"peptide-3: WNT-derived peptide, amino acid sequence AERRRELCRC (WNT-derived peptide 3)",presence of the peptide in cells
4,"peptide-2: WNT-derived peptide, amino acid sequence LCCGRGHNAR (WNT-derived peptide 2)",presence of the peptide in cells
